About 22,000 (6.9%) of roughly 320,000 compounds were called active. This list was built around the results that the source calls inconclusive (neither active nor inactive); the mix of calls is not that of the screen. Calls come from the whole dose curve; as a rule, active = well fitted inhibition curve with a large enough effect; inconclusive = small, poorly fitted or top-dose-only effect, or another doubt; inactive = no such curve, though single readings can be large or run the other way. Potencies beside an inconclusive call are fits to weak or partial responses and may not hold up.
test: Primary qHTS for delayed death inhibitors of the malarial parasite plastid, 96 hour incubation; conditions: P. falciparum luciferase reporter growth; series mostly up to 28.7 µM; activity change, negative = inhibition: at the top concentration
Method in brief: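 Cell-based qHTS: luciferase-tagged P. falciparum in erythrocytes (2% hematocrit, 0.05% parasitemia final) incubated with compounds for 96 hours, 37 C, 5% CO2; luciferase detection reagent then added and luminescence measured.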
% is set by controls: 0 for no effect and ±100 for the full control effect; potency is the fitted concentration of half-maximal effect.

Structure (SMILES) | Potency | activity change, negative = inhibition
COc1ccc(S(=O)(=O)N2CCCCCC2)cc1C(=O)N(C)Cc1ccc(OC)c(OC)c1OC | inconclusive: 8.28 µM [inhibitor, partial curve] | –
CN(CC(=O)Nc1ccccc1Cl)C(=O)c1cccc(S(=O)(=O)N2CCN(c3ccc(F)cc3)CC2)c1 | inconclusive: 18.5 µM [inhibitor, single point] | –
CC(=O)N(C(C)=O)c1nc(-c2ccccc2)cn1/N=C/c1cccc([N+](=O)[O-])c1 | inconclusive: 18.5 µM [inhibitor, partial curve, poor fit] | –
O=C1CCN(CCCc2ccccc2)CCN1[C@H](CO)Cc1ccccc1 | – | inactive: -23.7%
COc1ccccc1N1CCN(C(=O)C2CCN(C(=O)c3ccccc3Cl)CC2)CC1 | inconclusive: 10.4 µM [inhibitor, partial curve, poor fit] | –
COc1ccccc1/C=C/C(=O)N1CCN(S(=O)(=O)c2cc(C)ccc2C)CC1 | inconclusive: 13.1 µM [inhibitor, single point] | –
c1cncc(-c2nc3ccccc3s2)c1 | – | inactive: 130%
Cc1cc(C(=O)N(C)CC(=O)Nc2ccc(Cl)c(C(F)(F)F)c2)no1 | inconclusive: 4.15 µM [inhibitor, single point] | –
Nc1c(N(CCC2=CCCCC2)C(=O)COc2ccc(F)cc2)c(=O)[nH]c(=O)n1Cc1ccccc1 | inconclusive: 18.5 µM [inhibitor, single point] | –
CC(=O)NC[C@@H]1CN(c2ccc(N3CCOCC3)c(F)c2)C(=O)O1 | active: 15.1 µM | –
N#CN(Cc1ccccc1)Cc1ccccc1 | – | inactive: -3.7%
COc1ccc(CNc2cccc3[nH]c(C(F)(F)F)nc23)cc1 | – | inactive: 21.4%
O=C(NCCc1ccc(Cl)cc1)c1cc(-c2ccncc2)nc2ccccc12 | inconclusive: 13.1 µM [inhibitor, single point] | –
CC(C)OP(=O)(c1ccc(N(C)C)cc1)C(O)c1cccnc1 (configuration not stated) | inconclusive: 4.15 µM [inhibitor, partial curve, poor fit] | –
CCCC1=Nc2cc(C(=O)NCCCN3CCN(C)CC3)ccc2Sc2ccccc21 | inconclusive: 0.657 µM [inhibitor, full curve, poor fit] | –
Cc1ccc(S(=O)(=O)N2CCN(C(=O)c3ccc(-n4cncn4)c([N+](=O)[O-])c3)CC2)cc1 | – | inactive: -5.29%
CCc1ccc2c(c1)C(=O)c1ccccc1C2=O | – | inactive: -20.5%
COc1ccc2c(c1)C(SCC(=O)NCCc1ccccc1)CC(C)(C)O2 (configuration not stated) | inconclusive: 10.4 µM [inhibitor, single point] | –
CCN(C(=O)CSc1nnc(Cn2nnc3ccccc32)o1)c1nc(C)cs1 | active: 9.28 µM | –
O=C(Nc1ccncc1Cl)c1ccncc1 | – | inactive: 0%
COc1cccc(OCCCOc2ccccc2C(C)C)c1 | – | inactive: -7.95%
O=C(Nc1ccccc1)N1CCC(C(=O)N2CCCC(C(F)(F)F)C2)CC1 (configuration not stated) | inconclusive: 5.22 µM [inhibitor, partial curve, poor fit] | –
O=C(/C=C/c1ccccc1)NC(=S)Nc1ccccc1 | – | inactive: 2.63%
Nc1ccc(C(=O)N/N=C/c2cn(Cc3cccc(F)c3)c3ccccc23)cc1 | – | inactive: -14.8%

Structure (SMILES) | Potency | activity change, negative = inhibition
O=C(c1ccc(NS(=O)(=O)c2ccc(Cl)cc2)cc1)N1CCOCC1 | inconclusive: 18.5 µM [inhibitor, single point] | –
Cc1ccc(CNC(=O)c2ccc(CS(=O)(=O)c3ccccc3)o2)cc1 | active: 4.65 µM | –
O=Cc1ccc(-c2ccccc2OC(F)(F)F)o1 | – | inactive: 9.88%
COC(=O)c1cc(S(=O)(=O)NCc2ccccc2Cl)c[nH]1 | active: 2.62 µM | –
CCOc1cccc2sc(=NC(=O)CCS(=O)(=O)c3ccccc3)n(CC)c12 | inconclusive: 14.7 µM [inhibitor, single point] | –
COc1ccc(C2CC(c3ccc4ccccc4c3)=NN2C(=O)COC(=O)C2CCC(=O)N2)cc1 (configuration not stated) | – | inactive: 276%
CC(Sc1nnc(C(C)N(C)C)n1-c1ccc(Cl)cc1)C(=O)Nc1ccc2c(c1)OCO2 (configuration not stated) | inconclusive: 4.65 µM [inhibitor, partial curve, poor fit] | –
CN1CCN(CCCC(=O)c2ccc(F)cc2)CC1 | inconclusive: 11.7 µM [inhibitor, single point] | –
COc1c(O)ccc(/C=C(\C#N)c2nc3ccccc3[nH]2)c1[N+](=O)[O-] | active: 4.15 µM | –
O=C(CN(Cc1ccccc1)S(=O)(=O)c1ccc2c(c1)OCCO2)N/N=C/c1ccc(F)cc1 | inconclusive: 0.233 µM [inhibitor, full curve, poor fit] | –
O=C(NC1CC1)c1ccc(NS(=O)(=O)c2ccc(F)cc2)cc1 | – | inactive: 34.8%
O=C(CCOc1cccc(Br)c1)Nc1ccc(F)c(S(=O)(=O)N2CCOCC2)c1 | inconclusive: 11.7 µM [inhibitor, partial curve, poor fit] | –
CC1CCC2(CC1)NC(=O)N(NC(=O)CCl)C2=O (configuration not stated) | inconclusive: 10.4 µM [inhibitor, single point] | –
O=C(CSc1nnc(-c2ccc(F)cc2)c2ccccc12)Nc1c(F)cccc1F | inconclusive: 18.5 µM [inhibitor, single point] | –
O=C(N/N=C/c1cc(Br)c(Br)o1)C(O)c1ccccc1 (configuration not stated) | inconclusive: 0.415 µM [inhibitor, full curve] | –
Cc1nc(C)c(C(=O)C2=C(O)C(=O)N(CCCn3ccnc3)C2c2ccc(Cl)cc2)s1 (configuration not stated) | inconclusive: 0.465 µM [inhibitor, full curve, poor fit] | –
Clc1ccc(OCc2nc(-c3ccncc3)no2)c(Cl)c1 | active: 10.4 µM | –
COc1ccc(/C=C/C(=O)Nc2nnc(C(C)C)s2)cc1OC | inconclusive: 5.86 µM [inhibitor, partial curve] | –
O=C(NC(=S)Nc1cccnc1Cl)c1ccc(Cl)cc1 | – | inactive: -5.22%
CCN(CC)CCNC(=O)c1ccc(NC(=O)c2cccc(-n3cnnn3)c2)cc1 | inconclusive: 18.5 µM [inhibitor, single point] | –
O=C(Cn1cnc2cc([N+](=O)[O-])ccc2c1=O)Nc1ccccc1Cl | inconclusive: 8.28 µM [inhibitor, single point] | –
COc1ccc(-c2cc(=S)ss2)cc1 | inconclusive: 19 µM [inhibitor, single point] | –
CN1CCN(c2nc(-c3cccnc3)nc3scc(-c4ccccc4)c23)CC1 | inconclusive: 8.28 µM [inhibitor, partial curve] | –
CC(=O)/C(=N/Nc1ccc(Br)cc1)N1CCCc2ccccc21 | – | inactive: 1.7%

Full records from above. Values in the order: Potency | activity change, negative = inhibition
`COc1c(O)ccc(/C=C(\C#N)c2nc3ccccc3[nH]2)c1[N+](=O)[O-]` reads active: 4.15 µM | –
`O=C(CSc1nnc(-c2ccc(F)cc2)c2ccccc12)Nc1c(F)cccc1F` reads inconclusive: 18.5 µM [inhibitor, single point] | –
`O=C(CCOc1cccc(Br)c1)Nc1ccc(F)c(S(=O)(=O)N2CCOCC2)c1` reads inconclusive: 11.7 µM [inhibitor, partial curve, poor fit] | –

Next part.

Structure (SMILES) | Potency | activity change, negative = inhibition
COc1cc(C(=O)O/N=C(\N)c2ccncc2)cc(OC)c1OC | inconclusive: 10.4 µM [inhibitor, partial curve, poor fit] | –
Cc1ccc(OCC(=O)NNC(=O)CCC(=O)NCc2ccccc2)cc1 | inconclusive: 5.22 µM [inhibitor, partial curve, poor fit] | –
CCN(C(=O)Cn1nc(C(=O)O)c2ccccc2c1=O)C1CCCCC1 | – | inactive: 28.4%
NC(=O)C1CCCN(CC(O)COCc2ccc(Cl)cc2)C1 (configuration not stated) | – | inactive: 9.68%
Cc1nc2ccc(NC(=O)c3ccc(S(=O)(=O)N4CCOCC4)cc3)cc2s1 | inconclusive: 18.5 µM [inhibitor, single point] | –
COc1ccc(F)cc1C(=O)C1CCCN(C(=O)CCc2ccccn2)C1 (configuration not stated) | inconclusive: 13.1 µM [inhibitor, partial curve, poor fit] | –
O=C(Nc1cccc2ccccc12)C1CCN(C(=O)Cc2ccccc2)CC1 | inconclusive: 0.0026 µM [inhibitor, full curve, poor fit] | –
C=CCNc1nc(-c2ccc(O)c(C(N)=O)c2)cs1 | – | inactive: -16.7%
O=[N+]([O-])c1ncn(Cc2c(Cl)cccc2Cl)n1 | inconclusive: 0.185 µM [inhibitor, full curve, poor fit] | –
Cc1ccc(S(=O)(=O)Nc2ccc(S(=O)(=O)Nc3cc(C)nc(C)n3)cc2)cc1 | – | inactive: 33.2%
O=C(Nc1ccc(N2CCOCC2)cc1)c1cccc(-n2cnnc2)c1 | inconclusive: 5.86 µM [inhibitor, partial curve] | –
COc1ccccc1NC(=O)NCc1ccco1 | – | inactive: -4.28%
Cc1c(C=O)c(C=O)c(C)n1Cc1ccccc1 | active: 5.22 µM | –
C/C(=N\OC(=O)c1ccc(Cl)c(Cl)c1)c1sc(C)nc1C | inconclusive: 0.037 µM [inhibitor, full curve] | –
O=C(Nc1nc(-c2ccc(S(=O)(=O)N3CCCC3)cc2)cs1)c1ccco1 | – | inactive: 27%
CCOc1ccc(N(CC(=O)NCc2ccccc2C)S(C)(=O)=O)cc1 | – | inactive: 266%
Cn1ccnc1C1CCCCN1C(=O)c1cc(COc2ccc(F)cc2F)on1 (configuration not stated) | inconclusive: 5.22 µM [inhibitor, partial curve] | –
CC1(C)CC(=O)C2=C(C1)OC(N)=C(C#N)C21C(=O)N2CCCc3cccc1c32 (configuration not stated) | – | inactive: 2.86%
O=[N+]([O-])c1cccc(S(=O)(=O)c2cccc([N+](=O)[O-])c2)c1 | inconclusive: 0.0037 µM [inhibitor, full curve, poor fit] | –
CCC(C)NCCCCOc1ccc(Br)cc1 (configuration not stated) | inconclusive: 18.5 µM [inhibitor, single point] | –
COc1ccccc1/C=C(\NC(=O)c1ccc(OC)c(OC)c1)C(=O)Nc1ccc([N+](=O)[O-])cc1 | inconclusive: 18.5 µM [inhibitor, single point] | –
CCOc1ccccc1Nc1nnc(SCC(=O)Nc2ccc3[nH]c(=O)[nH]c3c2)s1 | inconclusive: 4.15 µM [inhibitor, partial curve, poor fit] | –
Cc1cc(C[n+]2ncsc2N)c2ncccc2c1 | – | inactive: -90%
O=C(CSc1nnc(CNc2ccc(F)cc2)o1)N1CCN(C(=O)c2ccco2)CC1 | inconclusive: 5.22 µM [inhibitor, partial curve, poor fit] | –

From PubChem BioAssay AID504834 (National Center for Advancing Translational Sciences (NCATS), 2011)
